Sequences of proteins named here, by UniProt entry; tags and fusion partners are left off. A change or cut given only in a name is not applied to a line headed by its entry.
UniProt A0R5T1: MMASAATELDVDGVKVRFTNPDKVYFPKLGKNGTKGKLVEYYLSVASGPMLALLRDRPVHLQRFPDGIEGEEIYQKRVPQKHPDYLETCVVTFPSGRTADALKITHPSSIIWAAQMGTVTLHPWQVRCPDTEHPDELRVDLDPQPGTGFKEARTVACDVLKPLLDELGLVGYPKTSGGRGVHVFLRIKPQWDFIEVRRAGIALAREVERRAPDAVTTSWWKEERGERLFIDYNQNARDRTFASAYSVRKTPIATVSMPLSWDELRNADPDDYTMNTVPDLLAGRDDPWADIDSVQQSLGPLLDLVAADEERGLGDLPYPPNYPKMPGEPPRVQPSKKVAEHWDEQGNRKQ

According to PMC5663958, “DNA Ligase C and Prim-PolC participate in base excision repair in mycobacteria” (Nature Communications, 2017):

How the values were obtained:
[1] = target: T1, DNA ligase C1 (LigC1, msmeg_6302), recombinant, His-tagged construct (M. smegmatis) (UniProt A0R5T2); assay: far-Western, overlay or dot blot; recombinant proteins slot-blotted on a membrane (3 μg of the possible interactors, 50 ng of the probed protein), blocked in TBS, 0.05% Tween 20, 5% milk; incubated with 5 μg ml^−1 Prim-PolC or LigC1; detected with Prim-PolC- or LigC1-specific antibodies; both purified
T1 sequence: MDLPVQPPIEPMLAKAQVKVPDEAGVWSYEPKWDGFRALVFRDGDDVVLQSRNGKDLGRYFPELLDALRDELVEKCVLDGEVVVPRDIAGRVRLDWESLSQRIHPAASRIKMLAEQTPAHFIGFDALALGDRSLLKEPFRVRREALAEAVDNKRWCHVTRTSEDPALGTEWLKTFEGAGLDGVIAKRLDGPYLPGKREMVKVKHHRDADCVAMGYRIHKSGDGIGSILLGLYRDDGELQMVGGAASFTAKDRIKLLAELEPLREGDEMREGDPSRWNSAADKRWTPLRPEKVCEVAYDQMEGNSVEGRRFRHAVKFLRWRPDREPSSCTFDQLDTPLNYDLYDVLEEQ

[2] = target: T2, exodeoxyribonuclease VIIB (ExoVIIB), recombinant (M. smegmatis) (UniProt A0R2T5); assay: as above
T2 sequence: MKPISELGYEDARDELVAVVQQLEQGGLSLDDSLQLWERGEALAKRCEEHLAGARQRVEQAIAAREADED

[3] = target: exonuclease III paralogue ExoIII, recombinant (M. smegmatis); assay: as above
[4] = target: exonuclease III paralogue XthA, recombinant (M. smegmatis); assay: as above
[5] = target: Prim-PolC (MSMEG_6301), recombinant (M. smegmatis) (UniProt A0R5T1); assay: as above
[6] = target: Mono-functional DNA glycosylase (MPG), recombinant (M. smegmatis); assay: as above
[7] = target: endonuclease IV (EndoIV), recombinant (M. smegmatis); assay: as above
[8] = target: Mono-functional DNA glycosylase (MPG), recombinant (M. smegmatis); assay: pull-down; FPG-6xHis or 6xHis-MPG bound to Ni-NTA resin in 50 mM Tris pH 8.0, 150 mM NaCl, 1 h at 4 °C; tag-free LigC or BSA added for 2 h; equimolar proteins; eluted with imidazole; SDS-PAGE and Coomassie staining; both purified

Question: What does the source list for “Prim-PolC (MSMEG_6301), recombinant (from UniProt A0R5T1) (enzyme)”?
Answer: binding [1]: binds; binding [2]: no binding (tested: 5 μg ml^−1 probe on 3 μg blotted protein)

B1: DNA ligase C1 (LigC1, msmeg_6302), recombinant, His-tagged construct (enzyme, UniProt A0R5T2 1-348)
chain: MDLPVQPPIEPMLAKAQVKVPDEAGVWSYEPKWDGFRALVFRDGDDVVLQSRNGKDLGRYFPELLDALRDELVEKCVLDGEVVVPRDIAGRVRLDWESLSQRIHPAASRIKMLAEQTPAHFIGFDALALGDRSLLKEPFRVRREALAEAVDNKRWCHVTRTSEDPALGTEWLKTFEGAGLDGVIAKRLDGPYLPGKREMVKVKHHRDADCVAMGYRIHKSGDGIGSILLGLYRDDGELQMVGGAASFTAKDRIKLLAELEPLREGDEMREGDPSRWNSAADKRWTPLRPEKVCEVAYDQMEGNSVEGRRFRHAVKFLRWRPDREPSSCTFDQLDTPLNYDLYDVLEEQ
Question: Which binding [3] does the source give for B1 here?
Answer: Its binding is “binds”.

Question: What about the binding [4] of the same molecule?
Answer: Its binding is “binds”.

Question: What about the binding [5] of the same molecule?
Answer: Its binding is “binds”.

Question: And the binding [6]?
Answer: Its binding is “binds”.

Question: And the binding [7]?
Answer: The binding was “binds”.

B2: tag-free LigC1 (6xHis-LigC subjected to thrombin digestion) (enzyme, UniProt A0R5T2 1-348)
chain: MDLPVQPPIEPMLAKAQVKVPDEAGVWSYEPKWDGFRALVFRDGDDVVLQSRNGKDLGRYFPELLDALRDELVEKCVLDGEVVVPRDIAGRVRLDWESLSQRIHPAASRIKMLAEQTPAHFIGFDALALGDRSLLKEPFRVRREALAEAVDNKRWCHVTRTSEDPALGTEWLKTFEGAGLDGVIAKRLDGPYLPGKREMVKVKHHRDADCVAMGYRIHKSGDGIGSILLGLYRDDGELQMVGGAASFTAKDRIKLLAELEPLREGDEMREGDPSRWNSAADKRWTPLRPEKVCEVAYDQMEGNSVEGRRFRHAVKFLRWRPDREPSSCTFDQLDTPLNYDLYDVLEEQ
Question: How did the binding [8] turn out when B2 was run?
Answer: Its binding is “binds”.

These are yes or no findings as the source states them, for the method shown. For some assays here: A result given as binding can be weak or reduced; the word gives no strength. For some assays here: Sequences can lack the tags named with a protein.
